# Test results taken from PMC5458252, “Niclosamide is a potential therapeutic for familial adenomatosis polyposis by disrupting Axin-GSK3 interaction” (Oncotarget, 2017).
# Chains of the proteins cited; added tags and fusions are not shown.
# UniProt P49841: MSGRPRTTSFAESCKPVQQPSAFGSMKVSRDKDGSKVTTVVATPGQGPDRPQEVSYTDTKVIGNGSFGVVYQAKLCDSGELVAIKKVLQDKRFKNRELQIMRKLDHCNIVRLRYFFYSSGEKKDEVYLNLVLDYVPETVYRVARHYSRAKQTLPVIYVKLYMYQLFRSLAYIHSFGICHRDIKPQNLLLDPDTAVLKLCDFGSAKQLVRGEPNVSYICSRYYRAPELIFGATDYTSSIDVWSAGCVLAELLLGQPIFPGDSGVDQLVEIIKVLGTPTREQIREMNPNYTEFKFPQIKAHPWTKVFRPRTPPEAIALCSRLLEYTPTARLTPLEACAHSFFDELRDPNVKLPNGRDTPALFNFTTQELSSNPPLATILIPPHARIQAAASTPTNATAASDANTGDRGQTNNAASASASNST
# No constants are given. Whether binding was seen depends on the method and setting. Some entries that bind do so weakly or less than the wild type.
# Assays:
# [1] = target: His-tagged recombinant GSK3β (UniProt P49841); assay: SPR; ProteOn XPR36; GSK3β immobilised on a GLH sensor chip; peptides in PBS with Tween 20 and 1% DMSO flowed at 100 μl/min; Langmuir model; both purified
# [2] = target: His-tagged recombinant GSK3β (UniProt P49841); assay: cell-free Axin-FITC fluorescence (AFF) assay; His-tagged GSK3 (300 ng) on Ni-NTA beads; FITC Axin peptide (10 ng) with different concentrations of niclosamide, 2 h at 4 °C, PBS pH 7.4 washes; fluorescence of the beads (488/525 nm); both purified
binding [1],binding [2],Binder
no binding (tested: 20 μM),,VEPQKAAEEAIHRAEAVQR [19-mer mutant Axin peptide]
,binds,"VEPQKFAEELIHRLEAVQR (FITC-conjugated (position not given)) [FITC-conjugated 19-mer Axin peptide (Axin1, 383-401)]"
